Test results from article PMC7680112.
No constants are given. Whether binding was seen depends on the method and setting. Some binding calls cover weakened binding; strength is not graded here.

Sequences of proteins named here, by UniProt entry; tags and fusion partners are left off. A change or cut given only in a name is not applied to a line headed by its entry.
UniProt Q99592: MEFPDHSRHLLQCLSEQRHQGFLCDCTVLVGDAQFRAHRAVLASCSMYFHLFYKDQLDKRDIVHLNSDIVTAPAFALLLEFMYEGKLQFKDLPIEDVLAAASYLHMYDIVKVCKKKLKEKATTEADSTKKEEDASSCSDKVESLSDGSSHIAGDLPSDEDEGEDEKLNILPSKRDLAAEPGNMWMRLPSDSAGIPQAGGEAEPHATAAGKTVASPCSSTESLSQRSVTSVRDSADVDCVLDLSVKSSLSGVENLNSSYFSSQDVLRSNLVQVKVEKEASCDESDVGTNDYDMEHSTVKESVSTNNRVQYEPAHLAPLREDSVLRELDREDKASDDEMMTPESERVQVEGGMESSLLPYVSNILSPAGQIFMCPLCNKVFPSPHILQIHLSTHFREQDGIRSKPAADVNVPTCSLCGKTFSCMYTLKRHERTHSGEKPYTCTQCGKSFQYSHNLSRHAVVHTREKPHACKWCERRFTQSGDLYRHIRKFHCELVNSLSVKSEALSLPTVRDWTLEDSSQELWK

What was measured:
ZBTB18 A502T (human) = ZBTB18 A502T (human) (UniProt Q99592); experiment: two-hybrid; pairwise yeast two-hybrid: DB-X baits (wt and mutant) against AD-Y preys; mated in YEPD for 24 h, plated on Sc-Leu-3AT and Sc-Leu-His-CHX (autoactivation test); three independent repeats, positive if scored at least twice
ZBTB18 wild type (human) = ZBTB18 wild type (human) (UniProt Q99592); experiment: as above

## CTBP2 (from UniProt P56545 1-445)
ZBTB18 A502T (human)
  binding: no binding
ZBTB18 wild type (human)
  binding: binds
